The other results are listed elsewhere or left out. For some assays here: The exact form of the protein is not confirmed.

By UniProt entry, the sequences of proteins in these tests, tags left out.
UniProt P13051, whole entry: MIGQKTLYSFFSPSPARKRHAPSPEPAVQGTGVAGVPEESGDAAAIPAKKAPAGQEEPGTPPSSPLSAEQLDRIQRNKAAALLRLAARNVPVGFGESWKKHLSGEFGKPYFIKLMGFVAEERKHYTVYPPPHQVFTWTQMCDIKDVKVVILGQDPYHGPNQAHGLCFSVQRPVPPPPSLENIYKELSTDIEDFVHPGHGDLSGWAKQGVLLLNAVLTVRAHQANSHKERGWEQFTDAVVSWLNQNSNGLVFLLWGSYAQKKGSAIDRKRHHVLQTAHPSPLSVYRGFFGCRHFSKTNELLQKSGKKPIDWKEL

Holding throughout (experiment): protein microarray (ProtoArray v5.0), streptavidin-Alexa Fluor 647
Common to all, as to conditions: 3'-biotin; 20 mM Tris (pH 7.5), 5 mM MgCl2, 100 mM KCl, 0.1% Tween-20, A/T-rich and random oligonucleotide blockers; temperature not stated; high values mean tight binding

Test [1] has as its target UNG (UniProt P13051).
Test [2] concerns UPF0417 protein FAM163A (human).
Test [3] relates to UPF0545 protein C22orf39 (human).
The subject of test [4] is UPF0546 membrane protein C1orf91 (human).
Test [5] relates to UPF0549 protein C20orf43 homolog (human).
Test [6] deals with UPF0627 protein ENSP00000358171 (human).
For test [7], the system named is UROS (human).
The subject of test [8] is USE1 (human).
For test [9], the target named is T1, USP39 (UniProt Q53GS9).
T1 sequence: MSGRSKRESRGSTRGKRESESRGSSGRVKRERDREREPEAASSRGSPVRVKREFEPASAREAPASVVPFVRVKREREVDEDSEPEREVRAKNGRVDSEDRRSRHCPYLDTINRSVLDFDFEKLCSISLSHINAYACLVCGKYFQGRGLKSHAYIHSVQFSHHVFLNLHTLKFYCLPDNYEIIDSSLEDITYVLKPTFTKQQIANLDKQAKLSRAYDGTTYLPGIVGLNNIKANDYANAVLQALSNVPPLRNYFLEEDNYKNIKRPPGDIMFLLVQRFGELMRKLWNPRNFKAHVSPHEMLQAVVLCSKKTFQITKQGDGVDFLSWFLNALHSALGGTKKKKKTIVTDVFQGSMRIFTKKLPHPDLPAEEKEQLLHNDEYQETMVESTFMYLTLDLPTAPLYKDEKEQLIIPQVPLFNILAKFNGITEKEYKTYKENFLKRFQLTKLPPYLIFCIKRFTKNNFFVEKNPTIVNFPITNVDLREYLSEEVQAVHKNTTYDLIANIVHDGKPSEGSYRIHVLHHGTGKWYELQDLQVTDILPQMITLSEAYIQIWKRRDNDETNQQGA

The test system of test [10] is USP4 (human).
The subject of test [11] is USP47 (human).
For test [12], the system named is USP48 (human).
In test [13] the target is T2, USP5 (UniProt P45974).
T2 sequence: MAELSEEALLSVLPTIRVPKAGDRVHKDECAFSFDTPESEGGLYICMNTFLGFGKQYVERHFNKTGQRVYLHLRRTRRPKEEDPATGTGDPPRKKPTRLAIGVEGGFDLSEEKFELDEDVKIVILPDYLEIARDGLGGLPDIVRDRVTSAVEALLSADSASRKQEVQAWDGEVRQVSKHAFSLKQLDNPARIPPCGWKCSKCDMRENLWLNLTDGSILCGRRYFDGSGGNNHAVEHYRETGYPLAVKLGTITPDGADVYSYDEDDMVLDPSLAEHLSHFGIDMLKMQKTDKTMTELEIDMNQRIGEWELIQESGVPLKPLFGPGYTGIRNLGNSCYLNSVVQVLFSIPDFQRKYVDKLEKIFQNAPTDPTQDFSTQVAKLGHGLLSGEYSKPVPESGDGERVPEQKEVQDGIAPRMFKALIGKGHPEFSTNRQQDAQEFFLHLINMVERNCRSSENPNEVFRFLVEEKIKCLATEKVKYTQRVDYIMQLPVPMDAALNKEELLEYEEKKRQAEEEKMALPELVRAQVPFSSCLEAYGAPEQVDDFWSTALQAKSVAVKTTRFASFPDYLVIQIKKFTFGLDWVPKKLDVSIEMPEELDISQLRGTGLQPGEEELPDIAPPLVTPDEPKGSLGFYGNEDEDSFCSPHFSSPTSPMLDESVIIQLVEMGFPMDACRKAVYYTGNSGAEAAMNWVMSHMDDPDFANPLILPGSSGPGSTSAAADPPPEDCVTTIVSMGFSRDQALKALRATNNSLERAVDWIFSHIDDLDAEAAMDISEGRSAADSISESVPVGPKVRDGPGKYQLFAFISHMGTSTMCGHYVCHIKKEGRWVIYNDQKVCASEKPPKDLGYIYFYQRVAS

The test system of test [14] is UTP3 (human).
The subject of test [15] is Ubiquilin-4 (human).
For test [16], the system named is Ubiquilin-like protein (human).
The subject of test [17] is Ubiquinone biosynthesis protein COQ9, mitochondrial (human).
For test [18], the system named is Ubiquitin carboxyl-terminal hydrolase 24 (human).
In test [19] the test system is Uncharacterized protein C11orf48 (human).
Test [20] concerns Uncharacterized protein C11orf74 (human).

“GGTGACAGGGGTATGGGGAGGGG [G4-2 biotinylated (Ct1)]”: the binding signal is 3.41 z-score in test [1]; -0.395 z-score in test [2]; -0.366 z-score in test [3]; -0.387 z-score in [4]; -0.384 z-score in test [5]; -0.367 z-score in [6]. In addition, the binding signal in [7] is -0.372 z-score; in test [8] it was -0.369 z-score; in [9], 5.86 z-score; in test [10] it was -0.375 z-score; in [11], -0.378 z-score; in test [12], -0.387 z-score. The binding signal was -0.378 z-score in test [13]; -0.412 z-score in [14]; -0.395 z-score in [15]; -0.391 z-score in test [16]; -0.376 z-score in test [17]; -0.384 z-score in test [18]. Besides, the results for the binding signal in [19] and in [20] were -0.373 z-score and -0.385 z-score, respectively.

These data come from article PMC5996148.
